Reference: patent US11440880B2, “Thalidomide analogs and methods of use” (The USA, as represented by the Secretary, Department of …, priority 2015, dated 2022)
Some results were stated once for a whole list of compounds, not compound by compound.

System: mpo:GFP zebrafish embryos (neutrophil migration to the wound site)
Assay: mpo:GFP zebrafish fin-clip neutrophil migration (inflammation) assay
Type: in vivo
Conditions: 10 μg/mL; fin clipped at 72 hpf, read 24 hours later
From the text: Zebrafish embryology: The use of zebrafish embryo (Danio rerio) bioassays as a preclinical model in the classification of novel compounds has increased in recent years due to several factors including; low cost, ease of maintenance, speed of embryonic development, transparency of the embryos and genetic conservation between zebrafish and humans (Howe et al., Nature 2013; 496:498; Therapontos et al., PNAS 2009, 106:8573; Mahony et al., PNAS 2013, 110:12703; Beedie et al., Oncotarget 2016, 7(22):33237; Beedie et al., Mol. Cancer Ther. 2015, 14(10):2228). […] Embryos were dechorionated manually and exposed to test compounds or vehicle control for a further 24 hours, imaged and analyzed for intersegmental vessel (ISV) growth. […] By treating before this fusion and formation occurs, the effect of each compound on the individual vessels as well as overall patterning structural integrity (Isogai et al., Development 2003, 130:5281) could be determined. […] Fish were imaged at 24 hours and the number of migratory neutrophils present at the wound site were counted. […] All larvae were assessed for viability and morphological integrity. […]

| Structure (SMILES) | reduction of neutrophils to the wound site [%] |
| --- | --- |
| O=C1CCC(N2C(=O)c3ccc(OCc4ccccc4)cc3C2=O)C(=O)N1 (centres unmarked) [Compound 20] | ≥ 50 |
| O=C1CCC(N2C(=O)c3ccncc3C2=O)C(=O)N1 (centres unmarked) [Compound 58] | ≥ 50 |
